Test results: PubChem BioAssay AID504834 (National Center for Advancing Translational Sciences (NCATS), 2011)
Among all 320,000 compounds or so, about 22,000 (6.9%) were called active. The shares of active, inactive and inconclusive entries below differ from those in the screen. Calls follow the shape of the dose curve; as a rule, active = well fitted inhibition curve with a large enough effect; inconclusive = small, poorly fitted or top-dose-only effect, or another doubt; inactive = no such curve, though single readings can be large or run the other way. Potencies of inconclusive entries are doubtful fits and often do not repeat.

Experiment: Primary qHTS for delayed death inhibitors of the malarial parasite plastid, 96 hour incubation
Details: P. falciparum luciferase reporter growth; series mostly up to 28.7 µM; activity change, negative = inhibition: at the top concentration
How it was run: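 Erythrocytes infected with luciferase-expressing P. falciparum were dispensed at 2% hematocrit and 0.05% parasitemia (final), then incubated with compounds 96 hours at 37 C in 5% CO2. Luminescence after detection reagent addition reported growth.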
% is scaled to controls: 0 for no effect and ±100 for the full control effect; potency is read from the fitted curve at half-maximal effect.

Row | Compound | Potency | activity change, negative = inhibition
1 | CCc1ccc2oc(-c3ccc(OC)cc3)cc(=Nc3cccc(C(=O)O)c3)c2c1 | inconclusive: 18.5 µM [inhibitor, single point] | 
2 | COC(=O)CCC(=O)Nc1sc2c(c1C#N)CCCC2 | inconclusive: 18.5 µM [inhibitor, single point] | 
3 | O=C(Nc1ccc(Br)cc1)N1CCCCCC1 |  | inactive: 0.475%
4 | CCN(Cc1ccccc1)S(=O)(=O)c1ccc(S(=O)(=O)N2CCN(CCC#N)CC2)cc1 | inconclusive: 4.15 µM [inhibitor, partial curve, poor fit] | 
5 | COC(=O)c1cn(NC(=O)c2cccnc2)c(=O)c2ccccc12 | inconclusive: 4.15 µM [inhibitor, single point] | 
6 | CC(C)c1ccc(-c2cc(C(=O)N3CCOCC3)c3cc(Br)ccc3n2)cc1 |  | inactive: -4.85%
7 | CCC1=C(OC(=O)N(CC)CC)N2C(=O)OC(=NCc3ccccc3)[C@]2(C)[C@H]2C1=CC[C@H]1C(=O)N(CC(=O)OC)C(=O)[C@H]12 | active: 9.28 µM | 
8 | CC(C)(C)c1nc(NCCN2CCOCC2)c2nnn(Cc3ccccc3Cl)c2n1 | inconclusive: 9.28 µM [inhibitor, partial curve, poor fit] | 
9 | CCOc1ccc(OCC)c(NC(=O)c2ccc(CNc3c(N4CCOCC4)c(=O)c3=O)cc2)c1 | inconclusive: 10.4 µM [inhibitor, partial curve, poor fit] | 
10 | COc1cc2c(cc1OC)CN(C(=O)c1cc(C3CC3)nn1-c1ccccc1)CC2 | active: 5.86 µM | 
11 | CC(=O)C1=C(O)C(=O)N(c2ccc(Br)cn2)C1c1cccc([N+](=O)[O-])c1 (stereo unspecified) | inconclusive: 0.329 µM [inhibitor, full curve, poor fit] | 
12 | O=C1N=C(N2CCOCC2)S/C1=C\c1cccnc1 |  | inactive: -8.73%
13 | Cn1c(SCC(=O)Nc2ccccc2O)nnc1-c1ccco1 |  | inactive: -5.02%
14 | COc1ccc2c(=O)c(-c3ccccc3)coc2c1 |  | inactive: 153%
15 | Cc1[nH]nc2c1C(c1ccccc1F)NC2=O (stereo unspecified) | inconclusive: 11.7 µM [inhibitor, partial curve, poor fit] | 
16 | O=C(c1cccc(C(F)(F)F)c1)N1CCc2c([nH]c3ccccc23)C1C(F)(F)F (stereo unspecified) | active: 11.7 µM | 
17 | Cc1ccc(NC(=O)C2CCN(S(=O)(=O)c3ccc4c(c3)NC(=O)C(C)S4)CC2)c(C)c1 (stereo unspecified) | inconclusive: 11.7 µM [inhibitor, single point] | 
18 | CC(C)c1nnc(NC(=O)CCC(=O)NC2CC2)s1 |  | inactive: -19.2%
19 | CC(=O)c1ccc(NC(=O)CCCN2C(=O)/C(=C/C(C)=C/c3ccccc3)SC2=S)cc1 | inconclusive: 4.15 µM [inhibitor, partial curve, poor fit] | 
20 | COc1ccc(C(=O)NCc2c(C)nn(Cc3ccccc3)c2C)cc1S(=O)(=O)N1CCOCC1 | inconclusive: 18.5 µM [inhibitor, single point] | 
21 | C=CC[N+]1(C)CCC23c4c5ccc(O)c4O[C@H]2C(=O)CC[C@@]3(O)C1C5 (stereo partly specified) | inconclusive: 5.36 µM [inhibitor, partial curve] | 
22 | Cc1cc(/C=C2\SC(=O)NC2=O)c(C)n1-c1ccc(N2CCOCC2)cc1 | inconclusive: 5.22 µM [inhibitor, partial curve, poor fit] | 

Row | Compound | Potency | activity change, negative = inhibition
23 | N#Cc1cnn(-c2ccccc2)c1NC(=O)c1ccccc1F | inconclusive: 8.28 µM [inhibitor, single point] | 
24 | COC(=O)C1=C(c2cccc(OCc3ccccc3)c2)C[C@@H]2CC[C@H]1N2C(=O)NCc1ccc(OC)c(OC)c1 | inconclusive: 3.7 µM [inhibitor, partial curve] | 
25 | COCCN(C(=O)COc1ccc(Cl)cc1)c1nnc(-c2cccnc2)s1 |  | inactive: -0.398%
26 | CCOC(=O)C(NC(=O)c1ccccc1)=C1C=C(C)OC(C)=C1 |  | inactive: 0%
27 | CC(=O)NC(Cc1c[nH]c2ccccc12)C(=O)N/N=C/c1ccccc1 (stereo unspecified) | inconclusive: 10.4 µM [inhibitor, partial curve, poor fit] | 
28 | CC(=O)c1cccc(NC(=S)Nc2ccc(F)cc2)c1 |  | inactive: 39.3%
29 | O=C(CSc1nnc2ccccn12)NC(=O)Cc1ccccc1 |  | inactive: 20.6%
30 | COc1ccc(NC(=O)CSc2nc(=O)n(CCN3CCOCC3)c3c2CCCC3)c(OC)c1 | inconclusive: 5.22 µM [inhibitor, partial curve, poor fit] | 
31 | CCOCCCn1c(=S)[nH]c2cc(C(=O)NCCc3ccccc3)ccc2c1=O | inconclusive: 14.7 µM [inhibitor, single point] | 
32 | COc1ccc(-c2cc(C(=O)Nc3ccccc3N3CCOCC3)c3ccccc3n2)cc1OC | inconclusive: 1.47 µM [inhibitor, full curve] | 
33 | COCC(C)NCc1cccc(OC)c1OC (stereo unspecified) |  | inactive: 48.8%
34 | COC(=O)C1=C(c2ccc(OC(F)(F)F)cc2)C[C@@H]2CC[C@H]1N2C(=O)NCCOc1ccc(OC)cc1 | active: 5.86 µM | 
36 | COc1cc(NC(=O)C2=CC(c3ccc(C)cc3)=NS(=O)(=O)N2C)cc(OC)c1OC |  | inactive: -4.54%
37 | Cc1ccc(C)c(Oc2coc3cc(O)ccc3c2=O)c1 |  | inactive: -15%
38 | CC(CCc1ccccc1)NC(=O)C(=O)Nc1ccccc1 (stereo unspecified) |  | inactive: 0.448%
39 | Brc1ccc(CSc2ccc3nnc(-c4cccnc4)n3n2)cc1 | inconclusive: 10.4 µM [inhibitor, partial curve, poor fit] | 
40 | COc1cc(OC)cc(C(=O)Nc2ccc(S(=O)(=O)Nc3ccccn3)cc2)c1 | inconclusive: 1.85 µM [inhibitor, partial curve] | 
41 | COc1ccc(OC)c(-c2nn(-c3ccccc3)cc2C(=O)NCC(c2ccco2)N2CCCC2)c1 (stereo unspecified) | inconclusive: 18.5 µM [inhibitor, single point] | 
42 | COc1ccc(OCC(=O)Nc2ccc3c(c2)nc(CCN2CCC(C)CC2)n3C)cc1 | inconclusive: 18.5 µM [inhibitor, single point] | 
43 | C=CCn1c(O)c(C(CC)=NCCC2=CCCCC2)c(=O)[nH]c1=O | inconclusive: 2.62 µM [inhibitor, full curve] | 
44 | O=C(C[C@H]1C(=O)N(C2CCCCC2)C[C@@H]1Cc1ccccc1)Nc1ccccc1 | inconclusive: 14.7 µM [inhibitor, partial curve, poor fit] | 

Given with each value named: part of the list above
COc1ccc(OCC(=O)Nc2ccc3c(c2)nc(CCN2CCC(C)CC2)n3C)cc1
  Potency: inconclusive: 18.5 µM [inhibitor, single point]
C=CCn1c(O)c(C(CC)=NCCC2=CCCCC2)c(=O)[nH]c1=O
  Potency: inconclusive: 2.62 µM [inhibitor, full curve]
O=C(C[C@H]1C(=O)N(C2CCCCC2)C[C@@H]1Cc1ccccc1)Nc1ccccc1
  Potency: inconclusive: 14.7 µM [inhibitor, partial curve, poor fit]

(next part)

Row | Compound | Potency | activity change, negative = inhibition
45 | O=C1c2ccc3c4c(ccc(c24)C(=O)N1c1cccc(O)c1)C(=O)N(c1cccc(O)c1)C3=O | active: 1.04 µM | 
46 | Cc1ccc2nc(-c3ccccc3)cc(C(=O)N(C)CC(=O)Nc3ccccc3Br)c2c1 | inconclusive: 5.86 µM [inhibitor, partial curve, poor fit] | 
47 | NC(=O)c1cccn(Cc2ccc(C(F)(F)F)cc2)c1=O | inconclusive: 1.04 µM [inhibitor, partial curve, poor fit] | 
48 | CC(=O)n1cc([C@@H]2C=C(C(=O)N3CCN(Cc4ccc5c(c4)OCO5)CC3)O[C@H](OCc3ccc(CO)cc3)C2)c2ccccc21 | active: 1.65 µM | 
49 | Cc1ccc2nc(NC(=O)c3ccc(S(=O)(=O)N4CCCc5ccccc54)cc3)sc2c1 | inconclusive: 10.4 µM [inhibitor, single point] | 
50 | Cc1ccc(S(=O)(=O)N(C)C)cc1NC(=O)Nc1ccccc1F | inconclusive: 16.5 µM [inhibitor, single point] | 
51 | COC(=O)[C@@]12CCCCN1[C@H](c1ccc(-c3ccc(OC)cc3)c(OC)c1)[C@@H]1C(=O)N(C)C(=O)[C@@H]12 | active: 7.38 µM | 
52 | Cc1cccc(C(=O)Nc2ccc(C(=O)/C=C/c3ccncc3)cc2)c1 |  | inactive: 209%
53 | CC(=O)Nc1ccc(-c2cc(-c3ccc(NC(C)=O)cc3)nc(-c3ccccc3)n2)cc1 | inconclusive: 0.0738 µM [inhibitor, full curve, poor fit] | 
54 | COc1cccc(-c2ccc(NC(=O)C3CCCN(Cc4ccc(CO)o4)C3)cc2)c1 (stereo unspecified) | inconclusive: 18.5 µM [inhibitor, single point] | 
55 | OCC1(Cc2ccc(Cl)cc2)CCN(Cc2ccc(F)c(F)c2)CC1 | inconclusive: 11.7 µM [inhibitor, single point] | 
56 | O=C(Nc1cccc(Cl)c1)c1cccc(N2C(=O)C3CC=CCC3C2=O)c1 (stereo unspecified) |  | inactive: 6.73%
57 | Cn1c(=O)c2c(n(C)c1=O)=NC1(CCCCC1)N=2 | inconclusive: 0.294 µM [inhibitor, partial curve, poor fit] | 
58 | C[n+]1ccc(/C=C/c2c[nH]c3ccccc23)cc1 | inconclusive: 10.4 µM [inhibitor, partial curve] | 
59 | CC(C)(C)NC(=O)c1cc(-c2ccccc2)n[nH]1 | inconclusive: 10.4 µM [inhibitor, single point] | 
60 | CCC(C)C(NC(=O)C1CCC(C)CC1)C(=O)NCc1cccnc1 (stereo unspecified) | inconclusive: 0.928 µM [inhibitor, partial curve] | 
61 | Oc1oc(-c2ccccc2)nc1/C=N/c1ccccn1 | active: 11.7 µM | 
62 | COc1ccc([C@]23Cc4ccccc4C(O2)c2c(cc(-c4ccccc4)oc2=O)O3)cc1 | inconclusive: 0.953 µM [inhibitor, partial curve, poor fit] | 
63 | O=C(CN1CCN(C/C=C/c2ccccc2)CC1)Nc1ccccc1C(=O)NC1CC1 | inconclusive: 4.65 µM [inhibitor, partial curve, poor fit] | 
64 | Cc1ccc(Cn2nc(C)c(NC(=O)CSc3n[nH]c(C)c3[N+](=O)[O-])c2C)cc1 |  | inactive: 4.46%
65 | Cc1cccc(N(C)S(=O)(=O)c2csc(C(N)=O)c2)c1 | active: 0.657 µM | 
66 | O=C(NCc1ccco1)C(c1ccccc1)N(C(=O)Cc1cccs1)c1ccccc1F (stereo unspecified) | inconclusive: 0.0026 µM [inhibitor, full curve, poor fit] | 
